These are yes or no findings as the source states them, for the method shown. Binding seen in cells or lysates may run through a third protein. Some binding calls cover weakened binding; strength is not graded here.
T1: symplekin (human (endogenous in HT-29 and Caco-2)) (UniProt Q92797)
T1 sequence: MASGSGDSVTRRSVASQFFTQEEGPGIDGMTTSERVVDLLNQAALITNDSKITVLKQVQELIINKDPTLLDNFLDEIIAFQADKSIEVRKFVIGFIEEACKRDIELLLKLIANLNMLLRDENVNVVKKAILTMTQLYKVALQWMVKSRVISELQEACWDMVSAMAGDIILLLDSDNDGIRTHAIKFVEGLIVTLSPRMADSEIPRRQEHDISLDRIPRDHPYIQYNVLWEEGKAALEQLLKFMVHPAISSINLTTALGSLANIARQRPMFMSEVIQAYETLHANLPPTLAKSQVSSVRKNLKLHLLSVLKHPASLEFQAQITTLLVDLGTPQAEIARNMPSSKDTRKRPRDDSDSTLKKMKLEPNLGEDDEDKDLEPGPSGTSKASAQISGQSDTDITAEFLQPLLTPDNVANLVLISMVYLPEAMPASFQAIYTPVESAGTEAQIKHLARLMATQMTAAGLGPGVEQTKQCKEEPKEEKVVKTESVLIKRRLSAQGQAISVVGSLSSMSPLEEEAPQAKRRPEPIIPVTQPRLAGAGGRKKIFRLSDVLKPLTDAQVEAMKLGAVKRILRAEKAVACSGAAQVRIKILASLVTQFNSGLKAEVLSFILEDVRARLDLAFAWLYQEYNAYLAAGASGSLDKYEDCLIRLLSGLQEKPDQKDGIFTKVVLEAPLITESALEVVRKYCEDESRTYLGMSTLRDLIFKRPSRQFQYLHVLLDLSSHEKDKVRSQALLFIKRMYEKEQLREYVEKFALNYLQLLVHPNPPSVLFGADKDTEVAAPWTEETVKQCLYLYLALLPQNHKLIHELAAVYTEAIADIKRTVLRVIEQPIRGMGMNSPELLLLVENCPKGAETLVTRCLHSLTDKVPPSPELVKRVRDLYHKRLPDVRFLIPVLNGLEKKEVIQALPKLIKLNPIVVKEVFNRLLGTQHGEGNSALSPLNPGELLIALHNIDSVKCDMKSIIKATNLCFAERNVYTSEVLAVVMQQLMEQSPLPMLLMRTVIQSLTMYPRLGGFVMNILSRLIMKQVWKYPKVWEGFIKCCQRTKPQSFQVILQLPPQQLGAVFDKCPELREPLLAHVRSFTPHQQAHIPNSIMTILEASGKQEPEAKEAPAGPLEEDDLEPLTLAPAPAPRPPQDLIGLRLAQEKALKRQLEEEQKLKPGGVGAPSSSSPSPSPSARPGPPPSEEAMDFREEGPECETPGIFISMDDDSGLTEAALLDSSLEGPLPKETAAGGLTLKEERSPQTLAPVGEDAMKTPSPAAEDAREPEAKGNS

Protein sequences, listed by entry. Tags and fused reporters are not part of them.
UniProt P27361: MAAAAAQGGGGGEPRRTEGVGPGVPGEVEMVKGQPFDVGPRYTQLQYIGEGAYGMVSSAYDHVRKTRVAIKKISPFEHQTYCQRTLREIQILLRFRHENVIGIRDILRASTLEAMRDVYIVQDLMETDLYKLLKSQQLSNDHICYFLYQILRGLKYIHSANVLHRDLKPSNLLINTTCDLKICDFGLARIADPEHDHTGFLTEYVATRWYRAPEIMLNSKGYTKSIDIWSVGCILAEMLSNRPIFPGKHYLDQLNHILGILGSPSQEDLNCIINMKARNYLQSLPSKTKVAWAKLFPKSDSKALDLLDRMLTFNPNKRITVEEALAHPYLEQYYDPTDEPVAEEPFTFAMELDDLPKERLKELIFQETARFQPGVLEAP
UniProt P28482: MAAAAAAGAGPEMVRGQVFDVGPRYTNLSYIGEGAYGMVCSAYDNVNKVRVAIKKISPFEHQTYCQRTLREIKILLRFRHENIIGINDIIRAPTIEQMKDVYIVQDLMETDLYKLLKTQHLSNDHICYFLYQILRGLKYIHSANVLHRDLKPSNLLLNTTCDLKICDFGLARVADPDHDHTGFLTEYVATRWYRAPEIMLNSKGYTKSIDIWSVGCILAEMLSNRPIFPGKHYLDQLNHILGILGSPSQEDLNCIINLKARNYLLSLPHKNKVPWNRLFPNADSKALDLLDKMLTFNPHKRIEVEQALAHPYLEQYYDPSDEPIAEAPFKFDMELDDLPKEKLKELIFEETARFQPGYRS


Assays:
Experiment in all cases: co-IP; forward and reciprocal co-IP of endogenous symplekin and ERK1/2 in Caco-2 cells with or without EGF (200 ng/ml); blots with antibodies against symplekin or ERK1/2; IP buffer 20 mM HEPES pH 8.0, 1.5 mM MgCl2, 0.2 mM EDTA, 0.5% NP40, 10% glycerol
[1] = target: T1, symplekin (human (endogenous in HT-29 and Caco-2))
[2] = target: extracellular signal-regulated kinase 1 (ERK1 of ERK1/2) (human (endogenous in Caco-2)) (UniProt P27361)
[3] = target: extracellular signal-regulated kinase 2 (ERK2 of ERK1/2) (human (endogenous in Caco-2)) (UniProt P28482)

Molecule	binding [1]	binding [2]	binding [3]
extracellular signal-regulated kinase 1 (ERK1 of ERK1/2) (from UniProt P27361 1-379) (enzyme)	binds		
extracellular signal-regulated kinase 2 (ERK2 of ERK1/2) (from UniProt P28482 1-360) (enzyme)	binds		
symplekin (protein, UniProt Q92797 1-1274) MASGSGDSVTRRSVASQFFTQEEGPGIDGMTTSERVVDLLNQAALITNDSKITVLKQVQELIINKDPTLLDNFLDEIIAFQADKSIEVRKFVIGFIEEACKRDIELLLKLIANLNMLLRDENVNVVKKAILTMTQLYKVALQWMVKSRVISELQEACWDMVSAMAGDIILLLDSDNDGIRTHAIKFVEGLIVTLSPRMADSEIPRRQEHDISLDRIPRDHPYIQYNVLWEEGKAALEQLLKFMVHPAISSINLTTALGSLANIARQRPMFMSEVIQAYETLHANLPPTLAKSQVSSVRKNLKLHLLSVLKHPASLEFQAQITTLLVDLGTPQAEIARNMPSSKDTRKRPRDDSDSTLKKMKLEPNLGEDDEDKDLEPGPSGTSKASAQISGQSDTDITAEFLQPLLTPDNVANLVLISMVYLPEAMPASFQAIYTPVESAGTEAQIKHLARLMATQMTAAGLGPGVEQTKQCKEEPKEEKVVKTESVLIKRRLSAQGQAISVVGSLSSMSPLEEEAPQAKRRPEPIIPVTQPRLAGAGGRKKIFRLSDVLKPLTDAQVEAMKLGAVKRILRAEKAVACSGAAQVRIKILASLVTQFNSGLKAEVLSFILEDVRARLDLAFAWLYQEYNAYLAAGASGSLDKYEDCLIRLLSGLQEKPDQKDGIFTKVVLEAPLITESALEVVRKYCEDESRTYLGMSTLRDLIFKRPSRQFQYLHVLLDLSSHEKDKVRSQALLFIKRMYEKEQLREYVEKFALNYLQLLVHPNPPSVLFGADKDTEVAAPWTEETVKQCLYLYLALLPQNHKLIHELAAVYTEAIADIKRTVLRVIEQPIRGMGMNSPELLLLVENCPKGAETLVTRCLHSLTDKVPPSPELVKRVRDLYHKRLPDVRFLIPVLNGLEKKEVIQALPKLIKLNPIVVKEVFNRLLGTQHGEGNSALSPLNPGELLIALHNIDSVKCDMKSIIKATNLCFAERNVYTSEVLAVVMQQLMEQSPLPMLLMRTVIQSLTMYPRLGGFVMNILSRLIMKQVWKYPKVWEGFIKCCQRTKPQSFQVILQLPPQQLGAVFDKCPELREPLLAHVRSFTPHQQAHIPNSIMTILEASGKQEPEAKEAPAGPLEEDDLEPLTLAPAPAPRPPQDLIGLRLAQEKALKRQLEEEQKLKPGGVGAPSSSSPSPSPSARPGPPPSEEAMDFREEGPECETPGIFISMDDDSGLTEAALLDSSLEGPLPKETAAGGLTLKEERSPQTLAPVGEDAMKTPSPAAEDAREPEAKGNS		binds	binds
